Measurements reported in PubChem BioAssay AID1224830 (NIAID, 2016)

Aim: 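Genes whose knock-down alters the TNF-alpha reporter response to LPS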 (primary screen)
System: human THP-1 monocytic leukaemia cells, TNF dual-luciferase reporter clone, PMA-differentiated to macrophage-like cells
Knock-down reagent: siRNA pool against human genes, 50 nM
Duration: LPS for 4 h, given about 3 days after siRNA transfection
Treatment: bacterial LPS (TLR4 ligand), 10 ng/ml
Read-out: 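Ratio of firefly to renilla light, scaled to the plate median and expressed as a robust z-score per replicate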
Reading the numbers: TNF reporter robust z-score: higher = stronger TNF reporter response to LPS
Call rule: 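a well is active when its z-score exceeds 2.8 or falls below -1.5; control wells carry no call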
Here is one part, drawn at random, of about 18,000 reagents. Over the whole deposit, about 2,900 (16%) are marked active. 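Calls are made per well; low scores hint the gene aids the LPS response, high scores that it dampens it.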 Repeated entries: four replicate wells of each siRNA pool.

target	PubChem SID	TNF reporter robust z-score	Call
CNMD	SID315454567	-1.36	inactive
CNMD	SID315454567	-1.77	active
CNMD	SID315454567	-1.96	active
CNMD	SID315454567	-1.55	active
AFF2	SID315448741	0.63	inactive
AFF2	SID315448741	0.64	inactive
AFF2	SID315448741	-0.14	inactive
AFF2	SID315448741	-0.22	inactive
TMEM81	SID315464517	0.73	inactive
TMEM81	SID315464517	-0.24	inactive
TMEM81	SID315464517	0.33	inactive
TMEM81	SID315464517	-1.05	inactive
VN1R10P	SID315460143	1.07	inactive
VN1R10P	SID315460143	1	inactive
VN1R10P	SID315460143	0.04	inactive
VN1R10P	SID315460143	0.64	inactive
CYP26B1	SID315458086	-0.4	inactive
CYP26B1	SID315458086	-0.19	inactive
CYP26B1	SID315458086	1.14	inactive
CYP26B1	SID315458086	1.35	inactive
MTIF3	SID315463156	0.49	inactive
MTIF3	SID315463156	0.9	inactive
MTIF3	SID315463156	-0.35	inactive
MTIF3	SID315463156	-1.55	active
KRTAP5-5	SID315464877	-0.15	inactive
KRTAP5-5	SID315464877	4.07	active
KRTAP5-5	SID315464877	-1.67	active
KRTAP5-5	SID315464877	-0.51	inactive
UBTD2	SID315460986	-0.02	inactive
UBTD2	SID315460986	-0.24	inactive
UBTD2	SID315460986	0.05	inactive
UBTD2	SID315460986	-1.09	inactive
NEURL2	SID315462143	-0.72	inactive
NEURL2	SID315462143	-0.43	inactive
NEURL2	SID315462143	-0.67	inactive
NEURL2	SID315462143	-1.96	active
ANKRD13C-DT	SID315454637	0.18	inactive
ANKRD13C-DT	SID315454637	0.76	inactive
ANKRD13C-DT	SID315454637	-1.49	inactive
ANKRD13C-DT	SID315454637	-0.78	inactive
LDLR	SID315449748	-0.72	inactive
LDLR	SID315449748	-0.62	inactive
LDLR	SID315449748	-0.95	inactive
LDLR	SID315449748	-0.9	inactive
CTBP1-DT	SID315460975	-0.57	inactive
CTBP1-DT	SID315460975	0.17	inactive
CTBP1-DT	SID315460975	-0.73	inactive
CTBP1-DT	SID315460975	0.23	inactive
MRPS9	SID315459056	0.47	inactive
MRPS9	SID315459056	0.39	inactive
MRPS9	SID315459056	-0.66	inactive
MRPS9	SID315459056	0.17	inactive
OR10A4	SID315463656	1	inactive
OR10A4	SID315463656	0.07	inactive
OR10A4	SID315463656	-0.99	inactive
OR10A4	SID315463656	-1.01	inactive
ZNG1E	SID315463252	1.41	inactive
ZNG1E	SID315463252	-0.05	inactive
ZNG1E	SID315463252	0.22	inactive
ZNG1E	SID315463252	-0.34	inactive
STX1A	SID315451692	-1.15	inactive
STX1A	SID315451692	-1.79	active
STX1A	SID315451692	-0.98	inactive
STX1A	SID315451692	-1.01	inactive
SGCA	SID315451398	-1.1	inactive
SGCA	SID315451398	-0.33	inactive
SGCA	SID315451398	-0.44	inactive
SGCA	SID315451398	-0.05	inactive
CERS1	SID315454308	-0.66	inactive
CERS1	SID315454308	0.24	inactive
CERS1	SID315454308	1.39	inactive
CERS1	SID315454308	0.1	inactive
MSRA	SID315450047	-0.44	inactive
MSRA	SID315450047	-0.32	inactive
MSRA	SID315450047	0.4	inactive
MSRA	SID315450047	-0.27	inactive
PRPF38A	SID315460600	-1.29	inactive
PRPF38A	SID315460600	-1.48	inactive
PRPF38A	SID315460600	-1.32	inactive
PRPF38A	SID315460600	-1.46	inactive
KLHL9	SID315457960	-0.4	inactive
KLHL9	SID315457960	0.5	inactive
KLHL9	SID315457960	-0.37	inactive
KLHL9	SID315457960	0.3	inactive
ZDHHC8	SID315456180	-0.2	inactive
ZDHHC8	SID315456180	-1	inactive
ZDHHC8	SID315456180	-1.33	inactive
ZDHHC8	SID315456180	0.28	inactive
FN1	SID315448742	0.33	inactive
FN1	SID315448742	-0.15	inactive
FN1	SID315448742	0.84	inactive
FN1	SID315448742	1.33	inactive
ITSN2	SID315456337	-1.45	inactive
ITSN2	SID315456337	-1.2	inactive
ITSN2	SID315456337	-1.46	inactive
ITSN2	SID315456337	-0.99	inactive
SLC35E2A	SID315453664	-0.52	inactive
SLC35E2A	SID315453664	-0.9	inactive
SLC35E2A	SID315453664	-0.48	inactive
SLC35E2A	SID315453664	-0.23	inactive
ZNF75D	SID315452226	-0.27	inactive
ZNF75D	SID315452226	0.63	inactive
ZNF75D	SID315452226	1.11	inactive
ZNF75D	SID315452226	0.56	inactive
SLC31A1	SID315448042	-0.21	inactive
SLC31A1	SID315448042	-0.62	inactive
SLC31A1	SID315448042	-1.01	inactive
SLC31A1	SID315448042	-0.85	inactive
CD79B	SID315447809	3.09	active
CD79B	SID315447809	1.52	inactive
CD79B	SID315447809	1.7	inactive
CD79B	SID315447809	1.9	inactive

10 entries from above, ordered by “TNF reporter robust z-score”, lowest first:
target	PubChem SID	TNF reporter robust z-score	Call
ITSN2	SID315456337	-1.46	inactive
ITSN2	SID315456337	-1.45	inactive
ITSN2	SID315456337	-1.2	inactive
ITSN2	SID315456337	-0.99	inactive
SLC35E2A	SID315453664	-0.9	inactive
SLC35E2A	SID315453664	-0.52	inactive
SLC35E2A	SID315453664	-0.48	inactive
ZNF75D	SID315452226	-0.27	inactive
SLC35E2A	SID315453664	-0.23	inactive
FN1	SID315448742	1.33	inactive
